Laboratory results: publication PMC5458179, “Oxidative DNA double strand breaks and autophagy in the antitumor effect of sterically hindered platinum(II) complexes in NSCLCs” (Oncotarget, 2017)

Columns and labels:
A549 cells = assay: Cellular platinum uptake (ICP); assay type: cell-based; conditions: A549, 10 μM
NCI-H1299 cells = assay: Cellular platinum uptake (ICP); assay type: cell-based; conditions: NCI-H1299, 10 μM

Which “Pt accumulation of complex 3 compared to complex 3a” value (A549 cells) does the source give for `CC(C)C[NH+]1[C@@H]2CCCC[C@H]2[NH+](CC(C)C)[Pt-2]12[O]C(=O)CC(=O)[O]2` (stereo partly shown) [Complex 3] here?
The value was 2.4 times.

And the “Pt accumulation of complex 3 compared to oxaliplatin” value (A549 cells)?
Its value is 2.0 times.

What about the “Pt accumulation of complex 3 compared to complex 3a” value (NCI-H1299 cells) of the same compound?
Its value is 2.0 times.

What about the “Pt accumulation of complex 3 compared to oxaliplatin” value (NCI-H1299 cells) of the same compound?
The value was 1.9 times.
